Results are given in words; binding and its absence hold for the method and conditions named. For part of these data: Binding calls can cover weak binding; strength is not graded here. Sequences can lack the tags named with a protein. For part of these data: In cells and extracts the contact can be indirect.
B1: V5-MKT1L (protein, UniProt Q38C92 1-1220)
chain: MRKAGANRNNERQGRNLGQQGPQMSPPGPSMMYPHHHQHQHHHQHQHQHQHQHQHPHQHPHQHHHHHPHHNGVYGNAYDNIRQPQMPPHSFGQGVSGSPWNSPPQQTPMYNQGYNQMSPGTGGGYGDMGGMYRDVHGGQYPSSPSHMGGGANIPYGRNPAMHNGLPAGAPLPGGYGALPHQGAHTPMGFGRGGQPLMEHMQPSGMYGAPMMRHDGYPDTRVSPPAQVGYGAGAPVGPPPPPPMPAGPPYGGVLPGAGVGPGGPMNASRPPAGIGGGGGGGGNAGYLEMRARGMGPQMPASNASRPPRIGTPDPGMMPPNRMNQSPMMGQGLPPQVGNFMPLPGVSPSPHAMIPTTPSMGDTFPGDDANMSGSTEALYDFLHDRGLVSVDNISKFFPEGYGKDDPALKVAVDGNFCLTSLRDELRKRDSLWFLHSTLPEELLMLVQQHVEWMRNMKLEPIWVFNGLSVSGDVETFLTTEAELRARDAVWSKLEDGEIPDEVEIQEAFDQPLGEDVQMAVARYLKEELGVMAVTAPFLNWAQMVAFHKEGIADLLMGPPEMLLLPYDEMKVIVQIDVSNSSVNYLDRDRVLRALFPNHVTETNTRVAGDRLMDLGLITATHAALSSARVTLNLSMQEVYEELSTPTPKFRSIKDFINAHACSQETGKKAGLSIKHSKGRGYLRYSAVFSTKSRDTPLVYLVRVLDPDLTNADMPTNLAGVLGHLVPLSLFYMQFSGLLSVRIMTAITQSYLRDECPVSDTKDYHTTLGLLMTMRSQVIGQILKRIAHPPPIKRTECLSWVRWFQPILAPMDRPRDLIDLDEWEISDSDQLKKLDEDCLADYSIASVLSVTADASRPAVEESNRPAGRVPIRYNSKRETFLAILLKSFDFLGYFSHSTAPNDAVDGMEMECCGMDGHDRGGSVPAAYHEKDLSSMKRSEASDINFMADEGLKDYPSVYFPIYLRATIKANPLDVQASFVLLTELVRVRIINSNPCRYINPANQQVEISMDDQDTNSDSRVLLASRIACLVKLPYRRASENLPFVWAPVYSRHLCAFTVMVRAMCRCLRELVEVITSTVFLSGNSSCSLQDFAEFASILPFGDVPSTIGGLLLHYVLVFPSDYQANLTSREERIEYLQGKFRDIPDLADHLHLVMSFTLQALYLINAYMLNDKETIVAKDQLTGTIVEDTIEMMWQKWRDHIDDNPPGDIHNLYPPRHQEPIPH
B2: MKT1L full length, yeast two-hybrid fusion (protein, UniProt Q38C92 1-1220)
chain: B1 chain
B3: ZC3H11, yeast two-hybrid fusion (protein, UniProt Q57W26 1-364)
chain: MSTATSAPVVESMSDTVVCPQLSRHSTSLEELYTIGYNRSHSPSCFSSAGCEEEEGQKNVLAERYKTKLCKNFVQYGTCPYDIRCMFAHGEEELRTAEMNIMDGLVTKDAITSFQKLWHRAVSASSGSKHHSSHVANRRGVMTTATTTTTAGGSTDAAMHICRRMQRVVAAAAAAVPCGGRRVVSGSIRIRGCVRHNPYCHNILPTVSRYYSTMPDVFTRPYSKSDSCGNEAITEGNAWTYANEEGNEKETPAMISSGVPELTAWKRFNYVAERSQCTSVPEQNLPCADFAAIKESNNTGGNASGVDVENVDDAEHSTCSSVGNESGYFCRASRSASCGEQSQSHLKREGNEGRGEGLHMFLSL
B4: PBP1, yeast two-hybrid fusion (protein, UniProt Q57UZ7 1-550)
chain: MEGSHSSNMERLEYLYLNLVGQVVQVRLVDDMCVEGLFVACTDVDAETDAGIMICCTRNLASAKRSPLSPSCVNFTDDLFIPYQSIVMIEVQNAKIRTETPGRPDTGRADFSATKFDWADDGVSELLESEPHQTGTWNQFEANEKSFGVKTTYKEEFYTTRLDHSKITEEQRAQADRLAREIESSSTRGIAHRMEREECLHDDEGLDEGQLYSDVHRPQEKKPPYVPPSTGGRKLVNEPPPVPAAAAPATAPTTAPAAAPAPAAAPPAAAPAAAAPPPPPAATSMADDGSMRHKRMNEDPHHMQYDANQTAAGFNPAAAPYTPMKPGAAVPVVDFLASLADAISNNDMCYDCEPHWPGMCNLFYDQDDSSYSQQNYEAAAMPPSHSMNMHMYVNSQPNIPNAHRGYQGPLGRVPHNQSMPMHHMQGQGFHHEMHHHQAFHGMGNYSSQHHNPPIQEYAPHKGQQGVVSRPGMRQGKGGGASRVEPQQPVSANTASSPPPVPTVDSAPNEVKPPAKLQRGRGMAAFTKGDMDGDSGATTNATGGPKKRVGK
B5: V5-MKT1 (protein, UniProt Q587E3 1-735)
chain: MYPRHDDVSLFQRFVNDHKLEEKGLPLYQLAQLEGTDQVMLGVDGTKIIDMITQAVREREKMAIYTYTTPYTVYEKINEFRTMFQSIKNCTPVFVFNGIQYSPDSAEEFGREKNVVPSEVAALTGTDSSRLSNTTNVRFAEIHKKTANRFVVEEDVEGQIIRIFRSEFKNTIRAPYLAWAQLSSFRHCNHRHISEVYGCLELLAFPGIDRVVTNINPTRGTFDVVYKARVLEAARLSEEDLSSLILVESRSRVMRTVTLKFSSLEDMIKKVVRYKGSTIGASFAQQLHEEAIRASEANRMRASNQRGAAFRNLSAFASPVLTLTPPHCLPLHFLYGIPGFPHADAESFVGLPLPPVLYYIMSAGLLSPSLFAAVSQETVVDDWPLVDSIKYRDVAETVLPLRVQTIYQLAWTMSRGLGSISWFRRYNVLPARVSKLHVPPAIQLDGWALHSVTVPRGLHLVDVMEFAHLACSVDQVIYNTMEETYAAILLQSLDLLGYLTHETQDLHEEGQSSEPSTFGRALQLCSVPTLSEYTVLLIELARTNAISTEPFRITTEEVSPRDTPRDIVFASRVLSIIPLNVSGPWTAPIDAELAAFSMLSRMISRSIRQLLEAITTLMFSKGRTHVPLHRIGEIQRLLPFSTPVEFGCGVLVEYMLMKDKCTLKDLEEAFPECTYLRHDLATLFYFWDLAVQVLQRIETKENFCVDQHCLSSANERMKRAQKNLNILTGVRETYY

How the values were obtained:
[1] = molecular target: ZC3H21-myc (Trypanosoma brucei) (UniProt Q57Y77); assay: co-IP
[2] = molecular target: ZC3H20 with a HHYNPY -> HYNAA mutation, myc-tagged (Trypanosoma brucei) (UniProt Q57XK8); assay: co-IP
[3] = molecular target: EIF4E6-PTP (Trypanosoma brucei) (UniProt Q57V43); assay: co-IP
[4] = molecular target: EIF4E6, yeast two-hybrid fusion (Trypanosoma brucei) (UniProt Q57V43); assay: two-hybrid
[5] = molecular target: EIF4G5, yeast two-hybrid fusion (Trypanosoma brucei) (UniProt Q57VY5); assay: two-hybrid
[6] = molecular target: MKT1LΔN, yeast two-hybrid fusion (Trypanosoma brucei); assay: two-hybrid

Binder	binding [1]	binding [2]	binding [6]	other results
B1	no binding	no binding	–	binding [3]: no binding
B2	–	–	–	binding [4]: no binding; binding [5]: no binding
B3	–	–	no binding	–
B4	–	–	binds	–
B5	binds weakly	no binding	–	–
